Reference: PubChem BioAssay AID2417 (National Center for Advancing Translational Sciences (NCATS), 2010)
The whole screen tested about 140,000 compounds, of which about 4,300 (3.1%) were called active. Inconclusive results, whose numbers are uncertain, are shown with a selection of clear calls.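 How the source made its calls: active means readout at or below -70, meaning at least 70% loss of cells showing the perinucleolar compartment, a nuclear body marking cancer cells; inconclusive means readout between -30 and a set limit; inactive means the rest.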

Assay: High Content Assay for Compounds that inhibit the Assembly of the Perinucleolar Compartment;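 further: plate controls were DMSO wells for no effect and camptothecin positive control wells for full effect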
Conditions: PC3M PTB-GFP, PNC prevalence imaging, 16 h; at 10 µM; active compounds read low
Summary of the method: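 PC3M cells stably expressing PTB-GFP, 750–1000 cells/well, treated 16 h at 37 °C with compound (23 nl of library stock), in duplicate. After paraformaldehyde fixation and Hoechst stain, imaged at 20x; PNC prevalence scored by image analysis.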

Compound	activity change (PNC), negative = inhibition
CCOC(=O)c1cc(CC)sc1NC(=O)Cc1ccccc1	inconclusive: -57.5%
N#CC1=C(N)Oc2c(ccc3ccccc23)C1c1cccs1 (stereo unspecified)	inconclusive: -37.8%
NC(=O)c1c(N)sc2c1CCCCC2	inactive: -0.722%
N/C(COc1ccccc1)=N\NC(=O)c1cccnc1Oc1ccccc1	inactive: 9.45%
CN(C)CCNC(=O)c1ccc(COc2ccc(Cl)cc2Cl)cc1	inactive: 78%
COc1ccc(C2=Nc3nc(-c4ccccc4)cn3C(c3ccc(OC)cc3)C2)cc1 (stereo unspecified)	inconclusive: -54.1%
CC(=O)Nc1ccc2nc(SCC(=O)Nc3ccc(N4CCOCC4)c(Cl)c3)sc2c1	inactive: 106%
O=C(CN(C1CCCCC1)S(=O)(=O)c1ccc(Cl)cc1)NCc1ccncc1	active: -100%
CC(C)Cc1nnc(NC(=O)Cc2ccc([N+](=O)[O-])cc2)s1	inactive: 4.23%
Clc1cccc(Oc2cnns2)c1Cl	inconclusive: -73.3%
CCCCOc1ccc(OCCCN2CCOCC2)cc1	inactive: 16.6%
O=C(NCc1cccc(C(F)(F)F)c1)c1cc(Cl)ccc1Cl	active: -108%
O=C1OC2(CCCCC2)OC(=O)C1=CNc1nc2ccccc2s1	inconclusive: -33.6%
COc1cc(NC(=O)c2ccco2)c(C(=O)OCC(=O)c2c[nH]c3ccccc23)cc1OC	inconclusive: -54%
CCCN1C(=O)SC(CC(=O)Nc2cccc3ccccc23)C1=O (stereo unspecified)	inactive: -24.5%
O=C(Cc1ccc(Cl)cc1)Nc1ccc(-c2cc3ccccc3oc2=O)c(Cl)c1	inconclusive: -47%
O=C1CCCN1CCC1CCN(C(=O)Nc2ccccc2)CC1	inconclusive: -72.9%
Cc1ccc(NC(=S)NCc2cccn2C)cc1	inconclusive: -33.8%
CCOC(=O)c1ccc(-n2ncc(C(=O)OCC)c2N)cc1	inconclusive: -35.6%
S=C(NCc1ccc(Cl)cc1Cl)Nc1ccccc1	inactive: -20.2%
COc1ccc(-n2nnnc2-c2nc3ccccc3s2)cc1	inactive: -8.45%

Compound	activity change (PNC), negative = inhibition
CCOC(=O)N1CCC(N2C(=O)c3ccc(C(=O)NCc4ccco4)cc3C2=O)CC1	active: -119%
Cc1nc2c(oc3ccccc32)c(=O)o1	inconclusive: -51.6%
CS(=O)(=O)N(CC(=O)NCCSc1ccccc1)c1ccc2c(c1)OCO2	inconclusive: -38.9%
CCC(C)C(=O)Nc1nc(C)c(-c2csc(Nc3cc(Cl)ccc3OC)n2)s1 (stereo unspecified)	inactive: 0.101%
Cc1ccc(OC(C)C)c(CN(CCO)CCO)c1	active: -90.8%
COc1cnn(-c2ccccc2)c(=O)c1N(C)C	inactive: 14.7%
CCOc1ccc(CCNC(=O)CCN2C(=O)COc3ccccc32)cc1OCC	inactive: -20.1%
O=C(Nc1ccc2c(c1)OCO2)c1ccc(N2C(=O)c3ccccc3C2=O)cc1	inactive: -11%
CCc1cccc(NC2c3ccccc3C(=O)N2c2cccnc2)c1 (stereo unspecified)	inconclusive: -45.7%
Cc1c(NS(C)(=O)=O)c(=O)n(-c2ccccc2)n1C	inconclusive: -32.5%
CN1CCN(Cc2ccc(-c3ccc(Cl)cc3)o2)CC1	inactive: -18.3%
COc1cc(/C=C2\S/C(=N/S(=O)(=O)c3ccc(C)cc3)NC2=O)c([N+](=O)[O-])cc1OC	inconclusive: -38%
O=C(COC(=O)C1CCCN1C(=O)c1cccs1)c1ccccc1 (stereo unspecified)	inconclusive: -57.6%
CC(=O)c1sc(N/N=C\c2ccc(Br)cc2)nc1C	inactive: 48.8%
Cc1cccc(N2CC3=C(C2=O)C(c2ccccc2)NC(=O)N3C)c1 (stereo unspecified)	active: -81.1%
CCN1C=C(Cc2ccccc2C)C2=C(C1)C(c1ccccc1C)C(C#N)=C(N)O2 (stereo unspecified)	inactive: -8.86%
NC(=O)CSc1nc2ccccc2n1-c1ccccc1	inconclusive: -34.7%
CNc1sc(C(=O)c2cccs2)c(N)c1-c1nc2ccccc2s1	inactive: 26%
Cc1ccc(C(=O)Nc2oc(-c3ccccc3)cc2C#N)cc1	inconclusive: -35.1%
Cc1ccccc1NC(=O)Cc1ccccc1	inconclusive: -33.3%
CCOC(=O)N1CCN(C(=O)CN(c2cccc(C)c2)S(=O)(=O)c2ccc(C)cc2)CC1	inactive: 54.4%

Compound	activity change (PNC), negative = inhibition
COc1ccc(NC(=O)CSc2ccccn2)cc1	inactive: -16.2%
CN(C)C(CNS(=O)(=O)c1ccc(Cl)cc1)c1cccnc1 (stereo unspecified)	inconclusive: -30%
CCOC(=O)c1ccccc1NC(=S)N1CCC(C)CC1	inactive: 45.5%
O=C(CC1SC(=O)N(Cc2ccccc2)C1=O)Nc1nccs1 (stereo unspecified)	inconclusive: -65.1%
CC1CCCCN1S(=O)(=O)c1cnc(Cl)c(Br)c1 (stereo unspecified)	inconclusive: -55%
COCCCNc1oc(-c2ccccc2OC)nc1C#N	inconclusive: -70.7%
Cc1ccc(NC(=O)NC2C(NC(=O)Nc3ccc(C)cc3)N(C)C(=O)N2C)cc1 (stereo unspecified)	inconclusive: -40%
Cc1sccc1C1C(C#N)=C(N)SC(N)=C1C#N	inactive: 18.6%
COc1cccc(NC(=O)Cc2nnc(SCC(=O)c3ccccc3)n2C)c1	inactive: 230%
CN1CCN(C(=O)C2(NC(=O)Nc3ccccc3Cl)CCCCC2)CC1	inconclusive: -48.4%
O=C(N/N=C/c1ccc(Cl)c([N+](=O)[O-])c1)c1cnccn1	inconclusive: -55%
COc1ccc(/C(C)=N/NC(=O)c2cc(-c3cccnc3)nc3ccccc23)cc1	inactive: 65.7%
Cc1ccc2[nH]c(=O)c(CN(Cc3cccs3)S(=O)(=O)c3ccc4c(c3)OCCO4)cc2c1	inconclusive: -31.3%
COc1cc(SC)ccc1C(=O)N(C)Cc1ccccc1	inactive: 47%
CC1CCCC(NC(=O)COC(=O)c2ccc(N(C)C)cc2)C1C (stereo unspecified)	inactive: -6.62%
CCc1nc(Nc2ccc(OC)c(OC)c2)c2nnn(Cc3ccccc3Cl)c2n1	active: -119%
COc1ccccc1NC(=O)CC1C(=O)NCCN1C(=O)Nc1ccccc1 (stereo unspecified)	inconclusive: -30.9%
Cc1cc([N+](=O)[O-])nn1Cc1ccc(C(=O)N/N=C/c2ccc(O)cc2O)cc1	inconclusive: -50.6%
COc1ccc(C2C(C#N)=C(N)SC(N)=C2C#N)cc1OC	inconclusive: -57.4%
